Source: US7271160B2, “Methods and compositions for degradation and/or inhibition of HER-family tyrosine kinases” (Sloan-Kettering Institute for Cancer Research, priority 1999, dated 2007)
At least one compound was matched to its structure with a doubt left.

System: HER2
Experiment: Induction of HER2 degradation in MCF-7 cells (immunoblotting)
Assay type: cell-based, human
Conditions: 1 μM, 3 to 24 hours, Western blot and immunohistochemical analysis
Experimental: After exposure, cells were washed twice with ice-cold phosphate-buffered saline (PBS), collected by scraping and transferred into microcentrifuge tubes. For immunoblotting (HER2, Raf-1, ER), cells were lysed with SDS lysis buffer (50 mM Tris-HCl, pH 7.5, 2% SDS, 10% glycerol, and 1 mM DTT), boiled for 10 min, and sonicated briefly; for immanoprecipitation (IGF-IR), cells were lysed with NP40 lysis buffer (50 mM Tris-HCl, pH 7.5, 1% Nonidet P-40, 150 mM NaCl, 1 mM Na3VO4, 40 mM NaF, 1 mM phenylmethylsulfonyl fluoride (PMSF) and 10 μg/ml each of aprotinin, leupeptin and soybean trypsin inhibitor) for 20 min at 4° C. Cell lysates were cleared by centrifuging at 14,000×g for 15 min at 4° C. in a microcentrifuge; the supernatants were collected as the experimental samples. Protein concentration in each sample was determined using the BCA kit (Pierce) according to the manufacture's instructions. For detecting IGF-IR, samples were immunoprecipitated with anti-IGF-IR antibody. Immunocomplexes were collected on protein A-Sepharose beads (Pharmacia), washed three tires with the lysis buffer. Samples were subjected to SDS-PAGE, electrotransferred to nitrocellulose membranes, detected using the ECL kit (Amersham) according to the manufacturer's protocol, and quantitated using the Gel Doc 1000 (Bio-Rad). […]

## COC1=C2C[C@@H](C)C[C@H](OC)[C@H](O)[C@@H](C)/C=C(\C)[C@H](OC(N)=O)[C@@H](OC)/C=C\C=C(/C)C(=O)NC(=CC1=O)C2=O [GM, geldanamycin, reference compound]
  HER2 / HER-kinase expression over time: causes the degradation over time
